# Source: PubChem BioAssay AID2685 (National Center for Advancing Translational Sciences (NCATS), 2010)
# The other results are listed elsewhere or left out. The main result of the screen is listed elsewhere. These columns were measured beside it and carry no call. Most of these compounds were active or inconclusive in the main read-out, so they are no random draw. The note in brackets gives the kind of curve behind each potency; many fits are weak.
# Assay: qHTS Assay for Lipid Storage Modulators in Drosophila S3 Cells;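 on cell number change: cells counted by Cell Tracker Red CMTPX staining in the red channel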
# Details: BODIPY lipid droplet fluorescence, 18-24 h; for cell number change: measured here: cell count max response, cells fed with added oleic acid
# In short: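 Drosophila S3 cells loaded with oleic acid (400 uM, as added) and compounds at several concentrations; lipid droplets imaged by 488-nm laser-scanning cytometry, 500–530 nm intensity and object ratio to cell channel. Percent activity normalized to 20 uM Triacsin C.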
# [1] = measured here: cell number channel AC50, cells fed with added oleic acid
# [2] = measured here: lipid fluorescence (Fed channel) AC50, cells fed with added oleic acid
Structure (SMILES),cell number change [%],AC50 [1],AC50 [2]
NS(=O)(=O)c1ccc(NC(=O)CSc2n[nH]c(=O)n2C2CC2)cc1,8.58,"0.82 µM [falling, partial curve]","0.517 µM [falling, partial curve, poor fit]"
COCCN(C(=O)COC(=O)c1cccnc1Cl)c1c(N)n(Cc2ccccc2)c(=O)[nH]c1=O,,,"3.66 µM [rising, partial curve]"
Nc1ccc(S(=O)(=O)N2CCOCCOCCOCCOCCOCC2)cc1,-6.57,,
Cc1noc(C)c1C(=O)Nc1ccc(C#N)cc1,36.2,"29.1 µM [rising, single point]","32.6 µM [rising, single point]"
CCCOc1ccc(N2C(=O)C3ON(c4ccccc4)C(c4ccc(O)c(OC)c4)C3C2=O)cc1 (configuration not stated),76.1,"14.6 µM [rising, partial curve]",
Cc1nc(C)c(-c2csc(Nc3ccc(F)cc3)n2)s1,-23.5,,"16.4 µM [falling, single point]"
O=[N+]([O-])c1ccc(-c2nc(-c3ccncc3)no2)cc1,9.54,,"14.6 µM [rising, partial curve]"
CCCCNC(=O)N(C)c1nc2ccccc2s1,-5.42,,"0.259 µM [rising, partial curve]"
CCCNS(=O)(=O)c1ccc(CCC(=O)Nc2cc(Cl)ccc2Oc2ccccc2)cc1,-12.4,,"29.1 µM [falling, single point]"
O=c1[nH]c(SCCOc2ccccc2)nc2ccccc12,-56.2,"29.1 µM [falling, partial curve]","32.6 µM [falling, single point]"
CCOC(=O)c1ccc(Nc2cc(C)nc(C)c2C(=O)OCC)cc1,25.6,"2.06 µM [rising, full curve, poor fit]",
Cc1ccc(-c2n[nH]c(=S)c3ccccc23)cc1S(=O)(=O)NCC1CCCO1 (configuration not stated),-43.4,"14.6 µM [falling, partial curve, poor fit]",
O=C(CSc1n[nH]c(=O)n1C1CC1)Nc1cc(Cl)ccc1Oc1ccccc1,-25.5,,"29.1 µM [falling, single point]"
COc1ccc2[nH]c(=O)c(CN(Cc3cccnc3)S(=O)(=O)c3ccccc3F)cc2c1,-21,,"0.184 µM [falling, single point]"
C=CCn1c(CNS(=O)(=O)c2ccc(Br)cc2)n[nH]c1=S,,,"2.59 µM [rising, single point]"
Cc1ccccc1NC(=O)CN1C(=O)CSc2ccccc21,13.5,"0.517 µM [rising, partial curve, poor fit]","0.731 µM [rising, full curve]"
CCN(CC(=O)Nc1c(F)cccc1F)C(=O)C1CCN(C(=O)c2ccc(Cl)cc2)CC1,-25,,
O=C(NCCc1cccnc1)C1CCC(=O)N(Cc2ccc(Cl)cc2)C1 (configuration not stated),14.8,,"0.58 µM [falling, single point]"
COc1ccccc1NS(=O)(=O)c1cccc(C(=O)NCC(c2ccc(F)cc2)N2CCOCC2)c1 (configuration not stated),,"3.66 µM [rising, single point]","3.66 µM [rising, single point]"
CC1(C)CC(=O)C(C2C3=C(CC(C)(C)CC3=O)Oc3ccccc32)=C(O)C1 (configuration not stated),7.86,,"0.366 µM [rising, full curve, poor fit]"
CCN1CCN(C(=O)c2nn(-c3ccc(C)cc3)c(=O)c3c2c2ccccc2n3C)CC1,-2.84,,"13 µM [falling, partial curve, poor fit]"
CCN(C(=O)CSc1nnnn1-c1ccccc1)C1CCS(=O)(=O)C1 (configuration not stated),22.8,"1.64 µM [falling, partial curve]","3.66 µM [falling, partial curve]"
O=C(CSc1nc(-c2ccco2)cc(C(F)(F)F)n1)N1CCc2ccccc2C1,-49.1,"16.4 µM [falling, single point]",
Cc1ccc(N2/C(=N/c3nc(C)cc(C)n3)NC(=O)CC2C(=O)O)cc1 (configuration not stated),-62.6,"18.4 µM [falling, single point]","20.6 µM [falling, single point]"
Cc1cc(Br)c(S(=O)(=O)NCc2cccnc2)cc1C,-9.12,,"0.00517 µM [falling, full curve, poor fit]"
S=C(NCCc1cccc(Cl)c1)NCc1ccccc1,-8.67,,
Cc1ccc(NC(=O)CC2C(=O)N(Cc3ccccc3)C(=S)N2NC(=O)c2ccccc2)c(C)c1 (configuration not stated),0.704,,"0.82 µM [rising, full curve]"
COc1cc(C)c(C(C)C)cc1S(=O)(=O)NCCCn1ccnc1,-3.8,,"29.1 µM [rising, single point]"

# A second format for 2 compounds above.
Structure (SMILES) | cell number change [%] | AC50 [1] | AC50 [2]
O=C(CSc1n[nH]c(=O)n1C1CC1)Nc1cc(Cl)ccc1Oc1ccccc1 | -25.5 |  | 29.1 µM [falling, single point]
C=CCn1c(CNS(=O)(=O)c2ccc(Br)cc2)n[nH]c1=S |  |  | 2.59 µM [rising, single point]
